The text below walks through data of article doi:10.1101/2025.08.21.670878.

Sequences of proteins named here, by UniProt entry; tags and fusion partners are left off. A change or cut given only in a name is not applied to a line headed by its entry. A line that says so, or that is headed by a name, gives the form on record, which may keep a tag or linker. Residues count along the entry.
UniProt Q9HAW4: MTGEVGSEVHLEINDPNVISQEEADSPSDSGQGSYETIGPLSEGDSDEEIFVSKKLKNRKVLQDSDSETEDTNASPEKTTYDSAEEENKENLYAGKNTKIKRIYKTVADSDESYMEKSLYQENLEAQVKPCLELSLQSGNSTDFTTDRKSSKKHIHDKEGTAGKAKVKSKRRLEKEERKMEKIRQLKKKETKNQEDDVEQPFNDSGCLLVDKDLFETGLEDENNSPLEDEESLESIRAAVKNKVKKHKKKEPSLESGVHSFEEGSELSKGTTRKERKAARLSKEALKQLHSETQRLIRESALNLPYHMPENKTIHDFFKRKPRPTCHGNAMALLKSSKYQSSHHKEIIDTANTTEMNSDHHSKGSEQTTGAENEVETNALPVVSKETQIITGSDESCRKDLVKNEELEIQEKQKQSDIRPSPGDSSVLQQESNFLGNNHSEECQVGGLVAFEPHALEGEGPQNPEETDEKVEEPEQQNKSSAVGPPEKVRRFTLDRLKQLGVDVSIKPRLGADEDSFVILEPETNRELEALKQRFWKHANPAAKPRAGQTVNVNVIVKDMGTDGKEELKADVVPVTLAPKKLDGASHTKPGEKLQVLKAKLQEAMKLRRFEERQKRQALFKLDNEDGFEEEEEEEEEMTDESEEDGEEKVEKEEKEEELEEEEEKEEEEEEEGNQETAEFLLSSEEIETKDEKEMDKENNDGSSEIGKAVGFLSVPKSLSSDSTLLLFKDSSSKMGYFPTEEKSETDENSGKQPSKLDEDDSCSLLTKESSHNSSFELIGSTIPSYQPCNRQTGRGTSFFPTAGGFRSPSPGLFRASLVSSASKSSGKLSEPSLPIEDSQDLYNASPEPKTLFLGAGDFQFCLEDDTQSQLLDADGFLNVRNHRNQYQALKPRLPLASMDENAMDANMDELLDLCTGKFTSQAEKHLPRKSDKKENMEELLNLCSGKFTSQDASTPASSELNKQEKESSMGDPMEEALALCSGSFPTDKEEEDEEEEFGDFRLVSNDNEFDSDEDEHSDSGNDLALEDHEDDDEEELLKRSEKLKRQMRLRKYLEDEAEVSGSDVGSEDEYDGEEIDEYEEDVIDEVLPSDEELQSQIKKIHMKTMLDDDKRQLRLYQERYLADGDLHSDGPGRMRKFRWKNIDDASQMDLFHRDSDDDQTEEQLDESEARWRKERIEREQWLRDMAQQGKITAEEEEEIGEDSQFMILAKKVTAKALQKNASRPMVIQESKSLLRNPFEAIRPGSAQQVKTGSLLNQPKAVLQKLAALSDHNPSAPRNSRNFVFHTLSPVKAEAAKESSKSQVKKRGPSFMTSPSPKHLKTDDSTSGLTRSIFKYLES
Flag-tagged wild-type Claspin C-terminal polypeptide (aa897-1339): residues 897-1339 of Q9HAW4
ST/A mutant Claspin, Flag-tagged, overexpressed in 293T cells (Q9HAW4, form named): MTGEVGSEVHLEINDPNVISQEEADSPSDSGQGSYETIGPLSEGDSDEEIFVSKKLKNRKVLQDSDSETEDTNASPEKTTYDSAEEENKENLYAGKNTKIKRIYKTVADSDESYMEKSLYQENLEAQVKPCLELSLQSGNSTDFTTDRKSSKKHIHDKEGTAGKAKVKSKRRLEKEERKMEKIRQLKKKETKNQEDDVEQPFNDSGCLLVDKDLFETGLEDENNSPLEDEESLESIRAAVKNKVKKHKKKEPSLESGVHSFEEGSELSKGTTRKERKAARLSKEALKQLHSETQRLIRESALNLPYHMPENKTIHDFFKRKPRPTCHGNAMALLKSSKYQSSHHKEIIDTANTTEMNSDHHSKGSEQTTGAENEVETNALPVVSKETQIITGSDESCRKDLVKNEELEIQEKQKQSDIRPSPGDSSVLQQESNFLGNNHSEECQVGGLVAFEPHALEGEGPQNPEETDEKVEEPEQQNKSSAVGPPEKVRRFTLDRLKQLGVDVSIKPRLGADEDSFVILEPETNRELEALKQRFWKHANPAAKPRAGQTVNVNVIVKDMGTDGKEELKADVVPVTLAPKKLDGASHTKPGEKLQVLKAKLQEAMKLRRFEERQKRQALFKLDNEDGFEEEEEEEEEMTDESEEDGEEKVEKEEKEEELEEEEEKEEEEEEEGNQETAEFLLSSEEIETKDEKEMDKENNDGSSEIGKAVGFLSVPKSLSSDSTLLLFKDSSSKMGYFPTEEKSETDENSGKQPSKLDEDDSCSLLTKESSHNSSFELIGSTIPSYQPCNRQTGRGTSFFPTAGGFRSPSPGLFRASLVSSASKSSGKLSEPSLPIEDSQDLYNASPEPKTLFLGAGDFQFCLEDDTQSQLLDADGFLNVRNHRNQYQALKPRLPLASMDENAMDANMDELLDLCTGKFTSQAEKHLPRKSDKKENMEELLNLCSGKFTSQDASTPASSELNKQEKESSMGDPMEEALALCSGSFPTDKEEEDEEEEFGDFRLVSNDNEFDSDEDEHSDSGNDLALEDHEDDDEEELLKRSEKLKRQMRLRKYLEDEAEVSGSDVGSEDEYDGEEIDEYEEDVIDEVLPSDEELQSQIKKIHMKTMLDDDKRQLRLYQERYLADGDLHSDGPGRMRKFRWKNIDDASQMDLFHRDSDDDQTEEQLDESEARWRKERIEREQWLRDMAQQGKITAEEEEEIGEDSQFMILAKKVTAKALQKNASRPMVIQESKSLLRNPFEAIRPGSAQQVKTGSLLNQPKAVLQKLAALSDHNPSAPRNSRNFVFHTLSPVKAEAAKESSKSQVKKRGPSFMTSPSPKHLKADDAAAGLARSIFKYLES
Flag-tagged ST/A Claspin C-terminal polypeptide (aa897-1339) (Q9HAW4, form named): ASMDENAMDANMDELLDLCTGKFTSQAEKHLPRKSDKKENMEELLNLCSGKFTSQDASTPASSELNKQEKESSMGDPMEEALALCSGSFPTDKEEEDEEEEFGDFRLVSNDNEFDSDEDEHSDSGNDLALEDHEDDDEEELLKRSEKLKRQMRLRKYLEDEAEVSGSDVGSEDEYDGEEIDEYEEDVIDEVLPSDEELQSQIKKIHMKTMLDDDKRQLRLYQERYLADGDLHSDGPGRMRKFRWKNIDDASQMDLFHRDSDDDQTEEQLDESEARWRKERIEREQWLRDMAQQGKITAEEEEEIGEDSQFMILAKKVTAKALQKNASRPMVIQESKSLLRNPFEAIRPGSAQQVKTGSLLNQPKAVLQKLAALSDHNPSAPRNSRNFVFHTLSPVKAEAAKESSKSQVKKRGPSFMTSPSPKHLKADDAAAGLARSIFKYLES
UniProt Q13535: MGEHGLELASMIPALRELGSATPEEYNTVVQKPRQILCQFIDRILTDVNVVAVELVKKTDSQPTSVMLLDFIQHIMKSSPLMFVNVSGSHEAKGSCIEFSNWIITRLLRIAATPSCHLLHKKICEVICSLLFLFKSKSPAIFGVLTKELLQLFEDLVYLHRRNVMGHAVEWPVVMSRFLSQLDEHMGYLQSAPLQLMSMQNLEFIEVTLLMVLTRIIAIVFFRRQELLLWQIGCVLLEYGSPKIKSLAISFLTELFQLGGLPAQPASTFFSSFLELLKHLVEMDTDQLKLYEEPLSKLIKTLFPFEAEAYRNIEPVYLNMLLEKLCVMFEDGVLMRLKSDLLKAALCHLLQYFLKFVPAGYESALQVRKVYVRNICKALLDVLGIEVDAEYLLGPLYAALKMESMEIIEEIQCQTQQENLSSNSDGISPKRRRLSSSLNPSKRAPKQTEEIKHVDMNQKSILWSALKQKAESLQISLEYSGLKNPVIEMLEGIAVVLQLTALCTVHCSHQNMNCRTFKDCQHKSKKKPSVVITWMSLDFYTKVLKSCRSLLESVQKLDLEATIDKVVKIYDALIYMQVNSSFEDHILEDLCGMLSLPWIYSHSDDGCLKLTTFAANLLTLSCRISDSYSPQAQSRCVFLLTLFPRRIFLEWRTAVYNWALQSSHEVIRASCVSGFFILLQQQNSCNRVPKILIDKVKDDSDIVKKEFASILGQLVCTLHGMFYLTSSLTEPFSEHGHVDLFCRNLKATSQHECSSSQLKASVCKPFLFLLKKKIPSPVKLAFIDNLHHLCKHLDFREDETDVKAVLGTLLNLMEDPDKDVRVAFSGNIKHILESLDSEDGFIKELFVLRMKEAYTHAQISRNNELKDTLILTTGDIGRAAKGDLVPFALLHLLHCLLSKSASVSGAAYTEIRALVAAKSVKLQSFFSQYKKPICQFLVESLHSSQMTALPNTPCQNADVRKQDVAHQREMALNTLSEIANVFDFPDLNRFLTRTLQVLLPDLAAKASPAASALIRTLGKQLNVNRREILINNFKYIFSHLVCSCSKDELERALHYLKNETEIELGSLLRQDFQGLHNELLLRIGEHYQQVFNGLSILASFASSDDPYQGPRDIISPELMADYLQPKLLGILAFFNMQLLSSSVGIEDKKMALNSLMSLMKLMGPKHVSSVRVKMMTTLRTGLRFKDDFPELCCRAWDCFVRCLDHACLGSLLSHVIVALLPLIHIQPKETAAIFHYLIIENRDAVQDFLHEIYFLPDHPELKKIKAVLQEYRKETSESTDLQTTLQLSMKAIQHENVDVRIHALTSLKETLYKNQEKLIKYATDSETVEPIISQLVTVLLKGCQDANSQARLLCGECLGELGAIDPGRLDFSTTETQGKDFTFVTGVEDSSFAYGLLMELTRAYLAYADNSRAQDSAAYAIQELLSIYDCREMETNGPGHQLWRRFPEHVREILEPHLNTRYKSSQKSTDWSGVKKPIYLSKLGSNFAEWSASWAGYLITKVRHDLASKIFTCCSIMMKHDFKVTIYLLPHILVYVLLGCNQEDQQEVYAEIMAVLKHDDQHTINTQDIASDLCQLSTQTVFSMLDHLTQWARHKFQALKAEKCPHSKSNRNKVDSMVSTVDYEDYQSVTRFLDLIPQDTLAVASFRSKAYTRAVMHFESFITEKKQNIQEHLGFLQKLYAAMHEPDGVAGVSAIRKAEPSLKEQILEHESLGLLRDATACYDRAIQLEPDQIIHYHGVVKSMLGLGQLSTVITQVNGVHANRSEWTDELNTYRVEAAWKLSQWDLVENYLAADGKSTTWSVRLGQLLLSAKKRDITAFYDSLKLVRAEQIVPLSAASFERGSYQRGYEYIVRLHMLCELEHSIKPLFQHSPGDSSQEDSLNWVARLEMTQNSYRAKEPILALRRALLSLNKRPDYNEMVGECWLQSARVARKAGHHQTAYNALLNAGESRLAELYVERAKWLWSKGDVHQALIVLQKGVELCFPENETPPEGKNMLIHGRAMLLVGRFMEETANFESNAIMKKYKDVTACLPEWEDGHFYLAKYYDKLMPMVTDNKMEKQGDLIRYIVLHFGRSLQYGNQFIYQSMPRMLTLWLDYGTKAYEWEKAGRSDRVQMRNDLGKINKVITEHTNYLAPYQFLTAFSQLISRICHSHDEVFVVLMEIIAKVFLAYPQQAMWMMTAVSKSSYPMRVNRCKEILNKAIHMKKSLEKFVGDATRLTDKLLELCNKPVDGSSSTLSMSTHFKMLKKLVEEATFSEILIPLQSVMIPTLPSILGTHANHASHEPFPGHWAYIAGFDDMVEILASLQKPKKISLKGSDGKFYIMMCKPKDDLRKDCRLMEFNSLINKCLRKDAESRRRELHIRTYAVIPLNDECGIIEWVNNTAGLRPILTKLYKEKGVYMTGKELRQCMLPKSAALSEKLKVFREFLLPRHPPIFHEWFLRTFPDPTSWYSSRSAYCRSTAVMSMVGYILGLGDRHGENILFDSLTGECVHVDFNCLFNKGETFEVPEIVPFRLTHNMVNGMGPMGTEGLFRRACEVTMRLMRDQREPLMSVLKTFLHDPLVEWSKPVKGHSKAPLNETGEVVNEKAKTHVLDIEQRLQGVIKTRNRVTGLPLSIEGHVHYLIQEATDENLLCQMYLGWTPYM
UniProt O00311: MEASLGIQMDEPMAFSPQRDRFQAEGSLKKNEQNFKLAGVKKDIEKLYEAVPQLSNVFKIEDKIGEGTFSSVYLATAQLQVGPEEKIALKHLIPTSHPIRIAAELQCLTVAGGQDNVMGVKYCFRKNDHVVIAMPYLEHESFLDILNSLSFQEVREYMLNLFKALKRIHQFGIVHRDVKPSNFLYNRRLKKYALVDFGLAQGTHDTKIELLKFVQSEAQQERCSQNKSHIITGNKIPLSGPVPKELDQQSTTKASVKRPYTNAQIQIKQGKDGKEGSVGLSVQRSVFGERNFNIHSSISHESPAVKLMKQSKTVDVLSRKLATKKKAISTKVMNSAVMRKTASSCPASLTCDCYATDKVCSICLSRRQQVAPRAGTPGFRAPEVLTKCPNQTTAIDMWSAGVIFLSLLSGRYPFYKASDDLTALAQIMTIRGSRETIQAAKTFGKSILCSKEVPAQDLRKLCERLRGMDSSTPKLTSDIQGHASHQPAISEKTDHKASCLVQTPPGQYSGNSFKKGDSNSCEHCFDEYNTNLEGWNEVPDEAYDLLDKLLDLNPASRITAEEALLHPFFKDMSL

Common to all, as to experiment: co-IP
Assay [1] concerns the target ST/A mutant Claspin, Flag-tagged, overexpressed in 293T cells (human) (UniProt Q9HAW4).
The target of assay [2] is Flag-tagged wild-type Claspin C-terminal polypeptide (aa897-1339) (human) (UniProt Q9HAW4).
The target of assay [3] is Flag-tagged ST/A Claspin C-terminal polypeptide (aa897-1339) (human) (UniProt Q9HAW4).
Assay [4] has as its target wild-type Claspin-Flag (stably expressed in HCT116 Claspin-myc-AID cells) (human) (UniProt Q9HAW4).

These are yes or no findings as the source states them, for the method shown. Binding seen in cells or lysates may run through a third protein. Some binding calls cover weakened binding; strength is not graded here.

For the substance “ATR (Ataxia Telangiectasia and Rad3-related) (from UniProt Q13535 1-2644) (enzyme)”, the binding result in assay [1] is reported as “binds”.
“Cdc7 (in 293T cells) (from UniProt O00311 1-574) (enzyme)”: the binding result in assay [2] and in assay [3] was “binds” in each case.
As for “Cdc7 (in HCT116 Claspin-myc-AID cells) (from UniProt O00311 1-574) (enzyme)”, the binding result in assay [4] is reported as “binds”.
